Source: the supplement of paper PMC12819154, “High-throughput peptide-centric local stability assay extends protein–ligand identification to membrane proteins, tissues and bacteria” (Nature Structural & Molecular Biology, 2025)
Some of the results follow. Most entries show no effect beyond the scatter of the controls.

Amino acid sequences for entries named in this document (tags omitted). A change or cut given only in a name is not applied to a line headed by its entry.
UniProt Q91YJ5: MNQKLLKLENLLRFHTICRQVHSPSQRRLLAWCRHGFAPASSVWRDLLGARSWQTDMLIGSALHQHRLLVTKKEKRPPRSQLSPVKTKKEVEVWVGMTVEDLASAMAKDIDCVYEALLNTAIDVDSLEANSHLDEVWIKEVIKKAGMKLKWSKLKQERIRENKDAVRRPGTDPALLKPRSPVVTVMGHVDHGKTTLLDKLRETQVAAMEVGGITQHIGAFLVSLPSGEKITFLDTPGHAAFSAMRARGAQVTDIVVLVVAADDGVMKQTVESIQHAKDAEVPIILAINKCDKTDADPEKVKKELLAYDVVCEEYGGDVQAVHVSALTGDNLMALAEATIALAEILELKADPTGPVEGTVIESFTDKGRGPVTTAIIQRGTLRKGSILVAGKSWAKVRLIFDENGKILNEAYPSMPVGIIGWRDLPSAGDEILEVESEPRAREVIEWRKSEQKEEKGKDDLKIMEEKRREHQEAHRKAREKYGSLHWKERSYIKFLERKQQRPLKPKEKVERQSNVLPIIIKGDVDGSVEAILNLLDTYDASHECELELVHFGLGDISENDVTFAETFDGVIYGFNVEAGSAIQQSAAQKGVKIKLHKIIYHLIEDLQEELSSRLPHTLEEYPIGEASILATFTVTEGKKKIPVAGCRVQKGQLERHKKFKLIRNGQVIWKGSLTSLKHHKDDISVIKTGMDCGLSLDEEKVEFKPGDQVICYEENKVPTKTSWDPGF
UniProt Q91VX9: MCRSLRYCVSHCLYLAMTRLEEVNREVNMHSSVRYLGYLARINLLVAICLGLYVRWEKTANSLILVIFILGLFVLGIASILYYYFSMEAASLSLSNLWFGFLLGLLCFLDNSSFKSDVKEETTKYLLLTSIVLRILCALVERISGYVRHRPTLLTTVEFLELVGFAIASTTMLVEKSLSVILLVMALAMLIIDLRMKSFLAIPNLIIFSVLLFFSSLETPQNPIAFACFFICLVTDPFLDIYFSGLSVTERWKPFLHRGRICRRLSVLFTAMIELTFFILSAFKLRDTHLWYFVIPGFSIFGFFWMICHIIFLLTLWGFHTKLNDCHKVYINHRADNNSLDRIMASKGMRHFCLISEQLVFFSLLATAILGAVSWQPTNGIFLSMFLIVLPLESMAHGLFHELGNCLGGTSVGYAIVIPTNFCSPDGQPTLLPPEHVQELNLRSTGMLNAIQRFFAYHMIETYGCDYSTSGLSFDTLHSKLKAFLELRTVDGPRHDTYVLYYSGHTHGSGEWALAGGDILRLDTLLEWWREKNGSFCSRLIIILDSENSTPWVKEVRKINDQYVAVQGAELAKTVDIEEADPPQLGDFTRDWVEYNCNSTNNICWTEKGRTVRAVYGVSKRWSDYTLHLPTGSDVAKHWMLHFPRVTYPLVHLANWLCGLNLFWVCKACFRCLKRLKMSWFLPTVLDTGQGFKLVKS
UniProt Q91VC4: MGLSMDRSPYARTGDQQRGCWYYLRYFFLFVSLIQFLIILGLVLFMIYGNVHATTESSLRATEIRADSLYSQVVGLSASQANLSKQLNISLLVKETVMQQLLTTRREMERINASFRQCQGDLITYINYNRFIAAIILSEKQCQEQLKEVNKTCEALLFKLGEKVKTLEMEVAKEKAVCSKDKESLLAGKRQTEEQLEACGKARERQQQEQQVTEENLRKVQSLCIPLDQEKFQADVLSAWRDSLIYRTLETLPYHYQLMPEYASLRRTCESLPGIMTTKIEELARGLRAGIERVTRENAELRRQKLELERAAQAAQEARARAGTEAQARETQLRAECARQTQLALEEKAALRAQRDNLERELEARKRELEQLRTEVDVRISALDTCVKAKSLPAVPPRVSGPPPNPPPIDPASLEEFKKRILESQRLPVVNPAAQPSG
UniProt Q91WU5: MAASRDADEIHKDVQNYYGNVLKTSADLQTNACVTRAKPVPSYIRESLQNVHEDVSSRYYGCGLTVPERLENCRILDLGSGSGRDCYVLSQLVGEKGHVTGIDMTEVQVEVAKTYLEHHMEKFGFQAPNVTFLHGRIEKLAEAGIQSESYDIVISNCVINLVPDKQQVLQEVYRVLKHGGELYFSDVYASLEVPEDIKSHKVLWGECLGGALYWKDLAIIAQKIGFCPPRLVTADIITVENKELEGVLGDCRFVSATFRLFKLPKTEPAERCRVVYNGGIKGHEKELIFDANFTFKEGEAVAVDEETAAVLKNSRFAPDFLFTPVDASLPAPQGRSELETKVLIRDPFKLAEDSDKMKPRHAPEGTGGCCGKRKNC
UniProt Q8VHN8: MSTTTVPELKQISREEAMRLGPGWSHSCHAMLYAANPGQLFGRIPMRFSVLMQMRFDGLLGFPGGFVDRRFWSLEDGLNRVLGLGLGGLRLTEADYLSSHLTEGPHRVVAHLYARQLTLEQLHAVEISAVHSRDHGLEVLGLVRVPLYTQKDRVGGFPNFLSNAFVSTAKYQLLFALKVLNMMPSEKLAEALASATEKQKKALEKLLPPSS

Compound: CN[C@@H]1C[C@H]2O[C@@](C)([C@@H]1OC)n1c3ccccc3c3c4c(c5c6ccccc6n2c5c31)C(=O)NC4 [staurosporine]
Assay: log2 fold change of tryptic peptide abundance, ligand vs vehicle (limited proteolysis) (log2 ratio); higher = more trypsin-susceptible (destabilized)
Details: ligand concentration: 20 uM; sample: mouse liver crude lysate; replicate design: treated separately

Target	log2 fold change
UniProt Q91YJ5 (peptide sequence: DAEVPIILAINKCDK, peptide start residue: 278)	0.785
UniProt Q91VX9 (peptide sequence: KINDQYVAVQGAELAK, peptide start residue: 558)	0.396
UniProt Q91VC4 (peptide sequence: AAQAAQEAR, peptide start residue: 311)	-0.975
UniProt Q91WU5 (peptide sequence: QQVLQEVYR, peptide start residue: 166)	0.266
UniProt Q8VHN8 (peptide sequence: QLTLEQLHAVEISAVHSR, peptide start residue: 116)	-0.274
